For some assays here: For expression read-outs the peptide stands for its source gene, whose mRNA was measured; the gene is not named for every peptide.
Experiments:
[1] = test system: HLA molecules of primary tumor and normal tissue samples; experiment: Identification and quantitation of tumor associated peptides presented on the cell surface (HLA immunoprecipitation, label-free LC-MS); parameters: species or system human; conditions: cancer entities on which the peptide was found presented (HLA immunoprecipitation, LC-MS); abbreviations in table footnotes
[2] = test system: source genes (mRNA) in tumor and normal tissues; experiment: Expression profiling of genes encoding the peptides (RNAseq); parameters: species or system human; conditions: for Gene Expression in tumor samples: highly over-expressed (++): tumor types in which the peptide's source gene is highly over-expressed compared to a panel of normal tissues (RNAseq); for Gene Expression in tumor samples: over-expressed (+): tumor types in which the peptide's source gene is over-expressed compared to a panel of normal tissues (RNAseq)

287: peptide found in UGT1A3 (gene looked up) (REVSVVDIL; listed as Homo sapiens) [compound 287]
Peptide Presentation on cancer entities [1]: HCC
Gene Expression in tumor samples: highly over-expressed (++) [2]: HCC

71: peptide found in F5 (gene looked up) (AEVGDIIKV; listed as Homo sapiens) [compound 71]
Peptide Presentation on cancer entities [1]: NSCLCadeno, PACA
Gene Expression in tumor samples: highly over-expressed (++) [2]: HCC
Gene Expression in tumor samples: over-expressed (+) [2]: CCC

103: peptide found in MMP13 (gene looked up) (AELFLTKSF; listed as Homo sapiens) [compound 103]
Peptide Presentation on cancer entities [1]: HNSCC, NSCLCsquam
Gene Expression in tumor samples: highly over-expressed (++) [2]: HNSCC, NSCLCsquam, OSCAR
Gene Expression in tumor samples: over-expressed (+) [2]: NSCLCadeno, UBC

398: peptide found in HPGDS (gene looked up) (AEIIRYIF; listed as Homo sapiens) [compound 398]
Peptide Presentation on cancer entities [1]: AML
Gene Expression in tumor samples: over-expressed (+) [2]: AML

395: peptide found in GSAP (gene looked up) (AEDFVWAQW; listed as Homo sapiens) [compound 395]
Peptide Presentation on cancer entities [1]: CLL, CRC, HCC, NHL, NSCLCsquam
Gene Expression in tumor samples: over-expressed (+) [2]: CLL

403: peptide found in PLD4 (gene looked up) (QESVHVASY; listed as Homo sapiens) [compound 403]
Peptide Presentation on cancer entities [1]: AML, BRCA, CLL, GBM, NHL, PACA, UEC
Gene Expression in tumor samples: over-expressed (+) [2]: AML

350: peptide found in APOB (gene looked up) (EEMLENVSL; listed as Homo sapiens) [compound 350]
Peptide Presentation on cancer entities [1]: CCC, HCC
Gene Expression in tumor samples: over-expressed (+) [2]: HCC

335: peptide found in ABCC4 (gene looked up) (SETPTLQGL; listed as Homo sapiens) [compound 335]
Peptide Presentation on cancer entities [1]: HCC
Gene Expression in tumor samples: over-expressed (+) [2]: PRCA

367: peptide found in MET (gene looked up) (TEFAVKLKI; listed as Homo sapiens) [compound 367]
Peptide Presentation on cancer entities [1]: NSCLCadeno
Gene Expression in tumor samples: over-expressed (+) [2]: CCC, GBC, RCC

41: peptide found in MMP1 (gene looked up) (EENTGKTYF; listed as Homo sapiens) [compound 41]
Peptide Presentation on cancer entities [1]: HNSCC, OSCAR
Gene Expression in tumor samples: highly over-expressed (++) [2]: HNSCC, NSCLCsquam, OSCAR
Gene Expression in tumor samples: over-expressed (+) [2]: CRC, GC, NSCLCadeno, PACA, UBC

23: peptide found in MMP1 (gene looked up) (REYNLHRVA; listed as Homo sapiens) [compound 23]
Peptide Presentation on cancer entities [1]: HNSCC
Gene Expression in tumor samples: highly over-expressed (++) [2]: HNSCC, NSCLCsquam, OSCAR, UBC
Gene Expression in tumor samples: over-expressed (+) [2]: CRC, GC, MEL, NSCLCadeno, PACA

151: peptide found in PTPRZ1 (gene looked up) (TELQIPSF; listed as Homo sapiens) [compound 151]
Peptide Presentation on cancer entities [1]: RCC
Gene Expression in tumor samples: highly over-expressed (++) [2]: GBM

325: peptide found in IGF2BP1 (gene looked up) (AEQEIMKKV; listed as Homo sapiens) [compound 325]
Peptide Presentation on cancer entities [1]: GBC
Gene Expression in tumor samples: over-expressed (+) [2]: GBC, HCC, HNSCC, MEL, NSCLCsquam

141: peptide found in DNTT (gene looked up) (SEKWFRMGF; listed as Homo sapiens) [compound 141]
Peptide Presentation on cancer entities [1]: AML
Gene Expression in tumor samples: highly over-expressed (++) [2]: AML

338: peptide found in HTR3A (gene looked up) (AEMKFYVVI; listed as Homo sapiens) [compound 338]
Peptide Presentation on cancer entities [1]: NHL, OC
Gene Expression in tumor samples: over-expressed (+) [2]: NHL, OC

227: peptide found in EGFR (gene looked up) (ALTEDSIDDTF; listed as Homo sapiens) [compound 227]
Peptide Presentation on cancer entities [1]: GBM
Gene Expression in tumor samples: highly over-expressed (++) [2]: GBM

186: peptide found in DNTT (gene looked up) (EEIFAHLGL; listed as Homo sapiens) [compound 186]
Peptide Presentation on cancer entities [1]: AML
Gene Expression in tumor samples: highly over-expressed (++) [2]: AML

264: peptide found in PGR (gene looked up) (RELIKAIGL; listed as Homo sapiens) [compound 264]
Peptide Presentation on cancer entities [1]: BRCA
Gene Expression in tumor samples: highly over-expressed (++) [2]: UEC
Gene Expression in tumor samples: over-expressed (+) [2]: BRCA

177: peptide found in LY6K (gene looked up) (LEEPMPFFY; listed as Homo sapiens) [compound 177]
Peptide Presentation on cancer entities [1]: OSCAR
Gene Expression in tumor samples: highly over-expressed (++) [2]: GBC, HNSCC
Gene Expression in tumor samples: over-expressed (+) [2]: MEL, NSCLCadeno, NSCLCother, NSCLCsquam, OC, OSCAR, UBC

197: peptide found in F5 (gene looked up) (NEILTIHF; listed as Homo sapiens) [compound 197]
Peptide Presentation on cancer entities [1]: BRCA, GC, HCC, NSCLCadeno, NSCLCsquam, OSCAR
Gene Expression in tumor samples: highly over-expressed (++) [2]: HCC
Gene Expression in tumor samples: over-expressed (+) [2]: CCC

307: peptide found in IL4I1 (gene looked up) (YEQLLKVVTW; listed as Homo sapiens) [compound 307]
Peptide Presentation on cancer entities [1]: CRC, NHL, UBC, UEC
Gene Expression in tumor samples: highly over-expressed (++) [2]: NHL
Gene Expression in tumor samples: over-expressed (+) [2]: GBC, OC, UEC

247: peptide found in APOB (gene looked up) (KESMLKTTL; listed as Homo sapiens) [compound 247]
Peptide Presentation on cancer entities [1]: HCC
Gene Expression in tumor samples: highly over-expressed (++) [2]: HCC

297: peptide found in EGFR (gene looked up) (DEYLIPQQGFF; listed as Homo sapiens) [compound 297]
Peptide Presentation on cancer entities [1]: GC, HCC, NSCLCadeno, NSCLCsquam, OSCAR
Gene Expression in tumor samples: highly over-expressed (++) [2]: GBM

348: peptide found in MET (gene looked up) (SEVLLTSISTF; listed as Homo sapiens) [compound 348]
Peptide Presentation on cancer entities [1]: NSCLCadeno
Gene Expression in tumor samples: over-expressed (+) [2]: CCC, GBC, NSCLCadeno, RCC

289: peptide found in PTPRZ1 (gene looked up) (NRYINIVAY; listed as Homo sapiens) [compound 289]
Peptide Presentation on cancer entities [1]: GBM
Gene Expression in tumor samples: highly over-expressed (++) [2]: GBM

126: peptide found in PGR (gene looked up) (SEASQSPQY; listed as Homo sapiens) [compound 126]
Peptide Presentation on cancer entities [1]: UEC
Gene Expression in tumor samples: highly over-expressed (++) [2]: UEC

272: peptide found in APOB (gene looked up) (SEQNIQRANLF; listed as Homo sapiens) [compound 272]
Peptide Presentation on cancer entities [1]: CCC, HCC
Gene Expression in tumor samples: highly over-expressed (++) [2]: HCC

248: peptide found in APOB (gene looked up) (KESQLPTVMDF; listed as Homo sapiens) [compound 248]
Peptide Presentation on cancer entities [1]: HCC
Gene Expression in tumor samples: highly over-expressed (++) [2]: HCC

72: peptide found in F5 (gene looked up) (AEVGDIIKVHF; listed as Homo sapiens) [compound 72]
Peptide Presentation on cancer entities [1]: HCC
Gene Expression in tumor samples: highly over-expressed (++) [2]: HCC
Gene Expression in tumor samples: over-expressed (+) [2]: CCC

30: peptide found in FLT3 (gene looked up) (EEFCFSVRF; listed as Homo sapiens) [compound 30]
Peptide Presentation on cancer entities [1]: AML
Gene Expression in tumor samples: highly over-expressed (++) [2]: AML

38: peptide found in MMP1 (gene looked up) (DEVRFFKGNKY; listed as Homo sapiens) [compound 38]
Peptide Presentation on cancer entities [1]: OSCAR
Gene Expression in tumor samples: highly over-expressed (++) [2]: HNSCC, NSCLCsquam, OSCAR
Gene Expression in tumor samples: over-expressed (+) [2]: CRC, GC, NSCLCadeno, PACA, UBC

67: peptide found in LOXL4 (gene looked up) (TEGAVEVKY; listed as Homo sapiens) [compound 67]
Peptide Presentation on cancer entities [1]: HCC
Gene Expression in tumor samples: highly over-expressed (++) [2]: MEL
Gene Expression in tumor samples: over-expressed (+) [2]: CCC

310: peptide found in BTLA (gene looked up) (FELECPVKY; listed as Homo sapiens) [compound 310]
Peptide Presentation on cancer entities [1]: CLL, NSCLCsquam
Gene Expression in tumor samples: highly over-expressed (++) [2]: CLL
Gene Expression in tumor samples: over-expressed (+) [2]: NHL

300: peptide found in APOB (gene looked up) (KQTEATMTF; listed as Homo sapiens) [compound 300]
Peptide Presentation on cancer entities [1]: CCC
Gene Expression in tumor samples: highly over-expressed (++) [2]: HCC

Source: patent publication US12065471B2, “B*44 restricted peptides for use in immunotherapy against cancers and related methods” (Immatics Biotechnologies GmbH, priority 2018, dated 2024)
